{"source": "PubChem BioAssay AID330", "about": "(DTP/NCI, 2004)", "system": "P388 leukemia ip, CD2F1 mice, survival T/C", "assay": "NCI In Vivo Anticancer Drug Screen. Data for tumor model P388 Leukemia (intraperitoneal) in CD2F1 (CDF1) mice", "details": "T/C endpoint: median survival time, higher T/C = longer survival", "note": "The list is a part of this screen's results and no random one: it gathers tests that were run many times, whatever their T/C, doses with no T/C, and many T/C values between a quarter and a half above the control. Further doses and runs are listed elsewhere. T/C gives the treated animals as a percentage of the vehicle group. Some entries give survivors of the animals treated and no T/C: the source holds a T/C of zero for them, seemingly a mark for toxic or unscored doses. Some doses without a T/C left all or most animals alive at the check, yet need not have been tolerated: survival well below the control is almost never listed, so the zero probably covers shortened survival too. Survivors were counted at the toxicity check, usually on the fifth day, unless a day is given; later deaths do not show. Schedules are NCI's codes, read here as Q, the interval in days (D) or hours (H), X, the number of doses. Where survival is the endpoint, the PubChem record calls one and a half times the control and up active, and a quarter to a half above the control has no call in these data; cut-offs in other NCI protocols can differ. Counts like (3×) count equal records among those shown. Some T/C values carry the count of animals alive at the toxicity check (mostly the fifth day); without a count, all were alive then. Some entries were tested several times; their values stand side by side, smallest first.", "data": [{"molecule": "COc1cccc2c1C(=O)c1c(O)c3c(c(O)c1C2=O)C[C@@](O)(C(=O)CO)C[C@@H]3OC1CC(N)C(O)C(C)O1", "note": "(some centres not stated)", "values": [{"measurement": "T/C", "setting": "dose: 0.5 mg/kg/injection, schedule: Q04DX003 (ip), vehicle: saline, evaluated on day 9", "result": "122 % of control"}, {"measurement": "T/C", "setting": "dose: 0.5 mg/kg/injection, schedule: Q04DX003 (ip), vehicle: saline, evaluated on day 30", "result": "97 [4 of 6 alive], 112, 114, 125 % of control (2×)"}, {"measurement": "T/C", "setting": "dose: 0.5 mg/kg/injection, schedule: Q04DX003 (ip), vehicle: saline, evaluated on day 45", "result": "140 and 161 % of control"}, {"measurement": "T/C", "setting": "dose: 0.5 mg/kg/injection, schedule: Q04DX003 (ip), vehicle: water, evaluated on day 30", "result": "138 and 163 % of control"}, {"measurement": "T/C", "setting": "dose: 0.5 mg/kg/injection, schedule: Q04DX003 (ip), vehicle: water, evaluated on day 40", "result": "116 % of control"}, {"measurement": "T/C", "setting": "dose: 0.5 mg/kg/injection, schedule: Q04DX003 (ip), vehicle: water, evaluated on day 45", "result": "116, 120, 139, 142, 153 % of control"}, {"measurement": "T/C", "setting": "dose: 0.62 mg/kg/injection, schedule: Q01DX001 (ip), vehicle: water", "result": "144 % of control"}, {"measurement": "T/C", "setting": "dose: 0.63 mg/kg/injection, schedule: Q04DX003 (ip), vehicle: saline", "result": "132 % of control"}, {"measurement": "T/C", "setting": "dose: 0.65 mg/kg/injection, schedule: Q01DX009 (ip), vehicle: saline, evaluated on day 30", "result": "145 % of control"}, {"measurement": "T/C", "setting": "dose: 0.65 mg/kg/injection, schedule: Q01DX009 (ip), vehicle: saline, evaluated on day 45", "result": "169 % of control"}, {"measurement": "T/C", "setting": "dose: 0.65 mg/kg/injection, schedule: Q01DX009 (ip), vehicle: saline, evaluated on day 60", "result": "171 and 190 % of control"}, {"measurement": "T/C", "setting": "dose: 0.75 mg/kg/injection, schedule: Q04DX003 (ip), vehicle: water", "result": "127 % of control"}, {"measurement": "T/C", "setting": "dose: 0.78 mg/kg/injection, schedule: Q01DX009 (ip), vehicle: water, evaluated on day 30", "result": "168, 175, 181, 186 (2×), 189, 193 (2×), 197, 206, 212, 213, 248 % of control"}, {"measurement": "T/C", "setting": "dose: 0.78 mg/kg/injection, schedule: Q01DX009 (ip), vehicle: water, evaluated on day 45", "result": "96, 125, 154, 172, 174 (2×), 179, 181 (2×), 183, 185, 186, 186 [5 of 6 alive], 194 (2×), 198, 200 (2×), 201, 203, 233, 245, 255, 267 % of control"}, {"measurement": "survivor count", "setting": "dose: 0.78 mg/kg/injection, schedule: Q01DX009 (ip), vehicle: water", "result": "6 of 6"}, {"measurement": "T/C", "setting": "dose: 0.97 mg/kg/injection, schedule: Q04DX002 (ip), vehicle: saline", "result": "145 % of control"}, {"measurement": "T/C", "setting": "dose: 0.97 mg/kg/injection, schedule: Q04DX003 (ip), vehicle: saline, evaluated on day 45", "result": "101, 148, 153, 158, 160, 166, 167, 168, 170, 178, 191 % of control"}, {"measurement": "T/C", "setting": "dose: 0.97 mg/kg/injection, schedule: Q04DX003 (ip), vehicle: saline, evaluated on day 60", "result": "149 % of control"}, {"measurement": "T/C", "setting": "dose: 1.0 mg/kg/injection, schedule: Q01DX001 (ip), vehicle: DMSO", "result": "141 % of control"}, {"measurement": "T/C", "setting": "dose: 1.0 mg/kg/injection, schedule: Q01DX001 (ip), vehicle: other", "result": "136 % of control [8 of 10 alive]"}, {"measurement": "T/C", "setting": "dose: 1.0 mg/kg/injection, schedule: Q01DX001 (ip), vehicle: saline, evaluated on day 5", "result": "122 % of control (2×)"}, {"measurement": "T/C", "setting": "dose: 1.0 mg/kg/injection, schedule: Q01DX001 (ip), vehicle: saline, evaluated on day 7", "result": "140 % of control"}, {"measurement": "T/C", "setting": "dose: 1.0 mg/kg/injection, schedule: Q01DX001 (ip), vehicle: saline, evaluated on day 30", "result": "148 and 166 % of control"}, {"measurement": "T/C", "setting": "dose: 1.0 mg/kg/injection, schedule: Q01DX001 (ip), vehicle: saline, evaluated on day 35", "result": "131 % of control"}, {"measurement": "T/C", "setting": "dose: 1.0 mg/kg/injection, schedule: Q01DX001 (ip), vehicle: saline, evaluated on day 45", "result": "111 % of control"}, {"measurement": "T/C", "setting": "dose: 1.0 mg/kg/injection, schedule: Q01DX001 (ip), vehicle: saline, evaluated on day 60", "result": "117 % of control"}, {"measurement": "T/C", "setting": "dose: 1.0 mg/kg/injection, schedule: Q01DX005 (ip), vehicle: saline", "result": "149 % of control"}, {"measurement": "T/C", "setting": "dose: 1.0 mg/kg/injection, schedule: Q01DX009 (ip), vehicle: saline, evaluated on day 5", "result": "238 and 277 % of control"}, {"measurement": "T/C", "setting": "dose: 1.0 mg/kg/injection, schedule: Q01DX009 (ip), vehicle: saline, evaluated on day 30", "result": "126, 128, 200 % of control"}, {"measurement": "T/C", "setting": "dose: 1.0 mg/kg/injection, schedule: Q01DX009 (ip), vehicle: saline, evaluated on day 45", "result": "189, 203, 223 % of control"}, {"measurement": "T/C", "setting": "dose: 1.0 mg/kg/injection, schedule: Q01DX009 (ip), vehicle: saline, evaluated on day 60", "result": "154, 172, 201 % of control"}, {"measurement": "T/C", "setting": "dose: 1.0 mg/kg/injection, schedule: Q01DX009 (ip), vehicle: water, evaluated on day 5", "result": "193 % of control"}, {"measurement": "T/C", "setting": "dose: 1.0 mg/kg/injection, schedule: Q01DX009 (ip), vehicle: water, evaluated on day 30", "result": "94, 114, 117 (2×), 141, 153, 156, 157, 173, 185, 186, 187 (2×), 192, 194 (2×), 198 (2×), 199 (2×), 200, 207, 209 (4×), 212, 213, 214, 221, 223, 230, 232, 266, 272 % of control"}, {"measurement": "T/C", "setting": "dose: 1.0 mg/kg/injection, schedule: Q01DX009 (ip), vehicle: water, evaluated on day 45", "result": "157, 171, 178, 183, 185, 186, 188, 192 (2×), 201, 202, 203, 204, 205 (2×), 216, 223 (2×), 230, 231, 236, 238, 241, 271, 295 % of control"}, {"measurement": "T/C", "setting": "dose: 1.0 mg/kg/injection, schedule: Q01DX009 (ip), vehicle: water, evaluated on day 60", "result": "193 % of control"}, {"measurement": "survivor count", "setting": "dose: 1.0 mg/kg/injection, schedule: Q01DX009 (ip), vehicle: water", "result": "6 of 6"}, {"measurement": "T/C", "setting": "dose: 1.0 mg/kg/injection, schedule: Q03HX008 (ip), vehicle: saline", "result": "137 % of control"}, {"measurement": "T/C", "setting": "dose: 1.0 mg/kg/injection, schedule: Q04DX003 (ip), vehicle: saline, evaluated on day 5", "result": "157 and 160 % of control"}, {"measurement": "T/C", "setting": "dose: 1.0 mg/kg/injection, schedule: Q04DX003 (ip), vehicle: saline, evaluated on day 8", "result": "137 % of control"}, {"measurement": "T/C", "setting": "dose: 1.0 mg/kg/injection, schedule: Q04DX003 (ip), vehicle: saline, evaluated on day 9", "result": "125 % of control"}, {"measurement": "T/C", "setting": "dose: 1.0 mg/kg/injection, schedule: Q04DX003 (ip), vehicle: saline, evaluated on day 30", "result": "104, 108 (2×), 109 (2×), 112 (2×), 114, 115, 117, 117 [5 of 6 alive on day 9], 122, 123, 124 (2×), 130, 135 [5 of 6 alive], 145, 176 % of control"}, {"measurement": "T/C", "setting": "dose: 1.0 mg/kg/injection, schedule: Q04DX003 (ip), vehicle: saline, evaluated on day 45", "result": "153, 156, 187 % of control"}, {"measurement": "T/C", "setting": "dose: 1.0 mg/kg/injection, schedule: Q04DX003 (ip), vehicle: saline, evaluated on day 60", "result": "160 % of control"}, {"measurement": "T/C", "setting": "dose: 1.0 mg/kg/injection, schedule: Q04DX003 (ip), vehicle: water, evaluated on day 30, list 1 of 2", "result": "96 [5 of 6 alive], 102, 107, 108, 109 (2×), 111, 111 [5 of 6 alive], 113 (2×), 114 (2×), 115, 116, 117 (2×), 118, 119, 120, 121, 122 (2×), 123, 124, 125, 127, 128, 129, 130 (2×), 131, 133, 136, 145, 157 % of control"}, {"measurement": "T/C", "setting": "dose: 1.0 mg/kg/injection, schedule: Q04DX003 (ip), vehicle: water, evaluated on day 30, list 2 of 2", "result": "100, 103, 108, 109 (2×), 110, 111, 112, 113, 114 (3×), 116, 117 (2×), 118, 119, 120 (2×), 121, 122, 123 (2×), 124, 127 (2×), 129, 130 (3×), 133 (2×), 142 [5 of 6 alive], 155, 172 % of control"}, {"measurement": "T/C", "setting": "dose: 1.0 mg/kg/injection, schedule: Q04DX003 (ip), vehicle: water, evaluated on day 35", "result": "110, 116 [5 of 6 alive on day 9], 118, 119 (2×), 121, 123 (2×), 126, 127 (2×), 133, 141, 142 % of control"}, {"measurement": "T/C", "setting": "dose: 1.0 mg/kg/injection, schedule: Q04DX003 (ip), vehicle: water, evaluated on day 40", "result": "107, 120, 126, 128, 134 % of control"}, {"measurement": "T/C", "setting": "dose: 1.0 mg/kg/injection, schedule: Q04DX003 (ip), vehicle: water, evaluated on day 45", "result": "103, 107, 108 (2×), 109 (3×), 109 [5 of 6 alive on day 9], 110, 111 (3×), 112, 113 (2×), 114 (3×), 115, 116 (2×), 117 (3×), 118, 119 (3×), 121, 122 (2×), 123 (2×), 124, 125 (2×), 126 (3×), 128, 128 [5 of 6 alive], 129 (2×), 130, 132, 133, 148, 157, 161, 162, 166, 173, 174, 182 % of control"}, {"measurement": "T/C", "setting": "dose: 1.0 mg/kg/injection, schedule: Q04DX003 (ip), vehicle: water, evaluated on day 46", "result": "173 % of control"}, {"measurement": "T/C", "setting": "dose: 1.0 mg/kg/injection, schedule: Q04DX003 (ip), vehicle: water, evaluated on day 50", "result": "109, 112, 115, 120, 138 % of control"}, {"measurement": "T/C", "setting": "dose: 1.0 mg/kg/injection, schedule: Q04DX003 (ip), vehicle: water, evaluated on day 60", "result": "113 and 129 % of control"}, {"measurement": "T/C", "setting": "dose: 1.04 mg/kg/injection, schedule: Q04DX002 (ip), vehicle: saline", "result": "148 % of control"}]}]}
